Part of at least one peptide drawing is inferred or uncertain, most often the ends. Where a SMILES comes first, the peptide text is derived from it.
Test system: senescent cells
Assay: Caspase-3/7 activation in non-senescent (NS) and senescent cells
Assay type: cell-based
Conditions: 10 μM, 24 hr

Question: `CC[C@H](C)[C@H](NC(=O)[C@H](CC(C)C)NC(=O)[C@@H](NC(=O)[C@H](CC(C)C)NC(=O)[C@H](CCSC)NC(=O)[C@H](CC(C)C)NC(=O)[C@H](CO)NC(=O)[C@H](CC(C)C)NC(=O)[C@H](CO)NC(=O)[C@H](CCCNC(=N)N)NC(=O)CNC(=O)[C@H](CO)NC(=O)[C@H](CCCNC(=N)N)NC(=O)[C@H](CCCNC(=N)N)NC(=O)[C@@H](NC(=O)[C@H](C)NC(=O)[C@H](CC(C)C)NC(=O)[C@H](CC(C)C)NC(=O)[C@H](CC(C)C)NC(=O)CNC(=O)[C@H](Cc1ccccc1)NC(=O)[C@H](CC(C)C)NC(=O)[C@H](CCCNC(=N)N)NC(=O)[C@@H](N)CCSC)C(C)C)[C@@H](C)O)C(=O)N[C@@H](CCCNC(=N)N)C(=O)NCC(=O)N[C@@H](CC(C)C)C(=O)N[C@@H](CO)C(=O)N[C@@H](CCCCN)C(=O)N[C@@H](CCCNC(=N)N)C(=O)N[C@@H](CC(C)C)C(=O)NCC(=O)O` [NOSH] (H-MRLFGLLLAVRRSGRSLSLMLTLIRGLSKRLG-OH) was tested. Which caspase-3/7 activation did it give?
Answer: higher caspase-3/7 activation in senescent cells than in non-senescent cells

From patent US12577281B2, “Mitochondrial-derived peptides and analogs thereof for use as a therapy for age-related diseases including cancer” (University of Southern California, priority 2020, dated 2026)
